# Data taken from publication PMC12862363, “AURKB-driven dissolution of CIZ1–RNA assemblies from the inactive X chromosome in mitosis” (Nucleic Acids Research, 2026).
# Tests used:
# [1] = biological target: T1, C179WT (hCIZ1 C-terminal fragment) (Homo sapiens) (UniProt Q9ULV3); experiment: EMSA; conditions: 0.66 nM RNA, yeast tRNA 0.1 mg/ml; 10 mM Tris-HCl pH 7, 30 mM NaCl, 2.5 mM MgCl2, 0.1% IGEPAL CA-630, 0.1 mg/ml yeast tRNA, 1.5% RNaseOUT, 0.2 mM EDTA, 0.2 mM DTT, 30 C 20 min; 0.8% agarose/TBE at 4 C; recombinant protein; residues 720-898; label: digoxigenin (DIG-11-UTP, internal); probe letters rebuilt from the primers and the …
# T1 sequence (looked up): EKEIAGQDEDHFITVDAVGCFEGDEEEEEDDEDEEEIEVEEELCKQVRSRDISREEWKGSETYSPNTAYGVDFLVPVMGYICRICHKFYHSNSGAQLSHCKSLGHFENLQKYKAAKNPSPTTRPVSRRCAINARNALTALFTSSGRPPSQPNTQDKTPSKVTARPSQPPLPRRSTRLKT
# [2] = biological target: T2, C181WT (mCIZ1 C-terminal fragment) (Mus musculus) (UniProt Q8VEH2); experiment: EMSA; conditions: 10 mM Tris-HCl pH 7, 30 mM NaCl, 2.5 mM MgCl2, 0.1% IGEPAL CA-630, 0.1 mg/ml yeast tRNA, 1.5% RNaseOUT, 0.2 mM EDTA, 0.2 mM DTT, 30 C 20 min; 0.8% agarose/TBE at 4 C; recombinant protein; residues 665-845; protein details: N-terminal GST removed with PreScission protease; label: digoxigenin (DIG-11-UTP, internal); probe letters rebuilt from the primers and the genome
# T2 sequence (looked up): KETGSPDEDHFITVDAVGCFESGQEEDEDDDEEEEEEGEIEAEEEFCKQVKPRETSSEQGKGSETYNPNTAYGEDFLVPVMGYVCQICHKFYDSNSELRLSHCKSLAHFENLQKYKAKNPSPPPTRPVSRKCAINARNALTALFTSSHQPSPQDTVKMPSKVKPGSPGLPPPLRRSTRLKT
sequence,measurement,setting,value
GGGAGCACUAGCUAUGGCUCUCUGUUUUAUCUAUCUGGUUGCUAUUUCUCUUAGCUUUUCUUUCACUCCUGCCUUUCGUGACUCCCCUUUGGGUCACAUGUUGCAUGCAUCCCUCUCUUUUUCUUGUGCUCACCCCACUUGUUCUUUGUUCAAGUUCUCUUUGUCAGUCCAUUUCAGUUUUCUUUCUGCUGCUUCUAUCCUUAGUGAAUUCUUGUUUACAUUUCUUCCCUGCCUUUCUUGGGCCACUUUCUCUGUUUUCUUUUGUAUUUGUGUCUCUUUGCUAUUGGUGGAUUUCUUAUCUCAGCAUCAUUCUGUUGCUUUGUGUUUGCUUGUGUUUCUAUCUUCUACUUUCCUCCUUUCUGUUCACUUUGAGCAUUUCAUCUCUUUACAAGUCUGUGUCUCUCUUGUAUUCUAAAGUAAUCCUUUCUUGGAUGUUUCUUUGUAUGUACAUGUGCGUGUGUGCAUGUGUGUUAUGUG [Xist repeat E RNA probe],binding signal (% probe shifted at 5 µM protein),[1],99
same,binding result,[2],binds

# Where a protein sequence is shown, tags need not be part of it.
